From PubChem BioAssay AID493014 (National Center for Advancing Translational Sciences (NCATS), 2011)
The list shows a part of the results. The main result of the screen is listed elsewhere. These columns were measured beside it and carry no call. Most of these compounds were active or inconclusive in the main read-out, so they are no random draw. Words in brackets tell the shape of the fitted curve; partial curves, single points and poor fits give uncertain potencies.

Experiment: qHTS Assay to Find Inhibitors of Chronic Active B-Cell Receptor Signaling
Conditions: ABC-DLBCL IkBa-CBG/CBR reporter, luminescence ratio (green luciferase fused to IkBa over red control in TMD8 lymphoma cells), 4 h
Method in brief: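 Concentration-response series (up to 46 uM) were applied to TMD8 dual-reporter cells for 4 h at 37C with doxycycline. Green/red ratio, after filter-overlap correction, defined %Activity; red signal alone was normalised to basal cells and zero luminescence.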

[1] = measured here: CBR red luminescence, cell number

SMILES | AC50 [1] | AC50 (measured here: IkBa-CBG green luminescence)
N/C(=N\N=C\c1ccc(Br)o1)c1nonc1N | 17.8 µM [falling, single point] | –
O=C(c1ccccc1)c1coc2ccc(O)c(CN3CCOCC3)c12 | 1.03 µM [falling, full curve, poor fit] | –
Cc1cc(C)c(C#N)c(SCC(=O)Nc2ccc(S(=O)(=O)Nc3ncccn3)cc2)n1 | 14.1 µM [falling, single point] | –
COC(=O)CC/C(=N/Nc1ccc(Cl)c(Cl)c1)C(=O)OC | 7.94 µM [rising, partial curve] | –
N#Cc1ccc(Oc2cccc3cccnc23)c([N+](=O)[O-])c1 | 3.55 µM [rising, full curve, poor fit] | –
CCCCn1c(N)c(N(CCOC)C(=O)c2ccc(Br)s2)c(=O)[nH]c1=O | 18.4 µM [rising, single point] | –
Cc1ccc(CNC(=O)CCCNC(=O)c2ccc(Cl)cc2)n1C | 29.1 µM [rising, single point] | –
Cc1ccc(OCCN2C(=O)C(=O)c3cc(C)ccc32)cc1 | 5.62 µM [rising, full curve] | 3.55 µM [falling, full curve]
CCCC(=O)Nc1cccc(-c2nc3cc(C)c(C)cc3o2)c1 | 0.112 µM [rising, full curve, poor fit] | –
COc1cc(C(=O)N2CCN(c3ccccn3)CC2)cc(OC)c1OC | 8.91 µM [rising, partial curve] | –
COc1ccc(NC(=O)C2CCN(S(=O)(=O)c3ccc(Br)s3)CC2)cc1OC | 29.1 µM [rising, single point] | –
O=C(Oc1ccccc1)c1ccc(-n2cnnn2)cc1 | 12.6 µM [rising, partial curve, poor fit] | –
Nc1ncnc2nc[nH]c12 | 1.41 µM [rising, partial curve] | –
Cc1cc(C)c2c(-n3cccc3)c(C(=O)O)sc2n1 | 22.4 µM [falling, single point] | –
COC(=O)/C=C1\SC(N2CCOCC2)=C(c2ccc(OC)cc2)C1=O | 3.55 µM [falling, full curve, poor fit] | –
C=CCSc1ncccc1C(=O)O | 29.1 µM [rising, single point] | –
CC(=O)C1=C(C)Nc2ncnn2C1c1ccc(Cl)cc1Cl (stereo not given) | 10 µM [falling, partial curve, poor fit] | –
CCC1CCCCN1C(=O)c1sc2nc(C)nc(N(CC)CC)c2c1C (stereo not given) | 12.6 µM [falling, partial curve] | –
CCOC(=O)c1cc(C)n(CCc2ccccc2)c1C | 1.3 µM [rising, partial curve, poor fit] | –

Two consecutive entries out of the list so far:
SMILES | AC50 [1] | AC50 (measured here: IkBa-CBG green luminescence)
Cc1ccc(OCCN2C(=O)C(=O)c3cc(C)ccc32)cc1 | 5.62 µM [rising, full curve] | 3.55 µM [falling, full curve]
CCCC(=O)Nc1cccc(-c2nc3cc(C)c(C)cc3o2)c1 | 0.112 µM [rising, full curve, poor fit] | –
